Earlier results as cited in publication PMC11249109 (Drug Design, Development and Therapy, 2024).

System: SARS-CoV-2
Conditions: read-out: IC50, anti-SARS-CoV-2 activity; Vero E6 cells; cited from earlier work

## CCC(CC)COC(=O)[C@H](C)N[P@](=O)(OC[C@H]1O[C@@](C#N)(c2ccc3c(N)ncnn23)[C@H](O)[C@@H]1O)Oc1ccccc1 [remdesivir, reference compound]
  IC50: 2.71 µM
